Laboratory results: PubChem BioAssay AID1259327 (Drosophila RNAi Screening Center, 2017)
The deposit covers about 3,100 reagents; shown is an unselected part. 378 of all reagents (12%) were called active. 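Hits include both directions; z-score sign shows ATP rise or fall; raw luminescence values are not plate-normalised.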 Entries without a mark were called inactive. The record does not give: the amount of reagent.

- Assay: 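Baseline ATP after transmembrane-protein gene knock-down with water vehicle only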
- Cell system: Drosophila S2R+ cells
- Knock-down reagent: long dsRNA against Drosophila genes
- Timing: 5 days (water added on day 4, read one day later)
- Challenge: water added as vehicle, no metal, one day before read-out
- Detection: 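Luciferase ATP signal per well, normalised to plate mean, duplicate average converted to z-score across plates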
- Direction: ATP z-score: higher = more total ATP than typical wells; ATP luminescence: higher = more total ATP
- Call rule: 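a hit is any knock-down whose absolute ATP z-score is greater than 1.5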
- Meaning of the calls: active = hit: ATP up or down; inactive = no clear ATP change

{"target gene": "kirre", "amplicon": "DRSC18785", "ATP z-score, duplicate mean": "-1.59 (active)", "ATP luminescence, replicate 1 (RLU)": 4.44e5, "ATP luminescence, replicate 2 (RLU)": 6.66e5}
{"target gene": "kirre", "amplicon": "DRSC24733", "ATP z-score, duplicate mean": 0.967, "ATP luminescence, replicate 1 (RLU)": 9.98e5, "ATP luminescence, replicate 2 (RLU)": 9.42e5}
{"target gene": "Tnpo-SR", "amplicon": "DRSC00546", "ATP z-score, duplicate mean": 1.43, "ATP luminescence, replicate 1 (RLU)": 5.74e5, "ATP luminescence, replicate 2 (RLU)": 5.84e5}
{"target gene": "Tnpo-SR", "amplicon": "DRSC38005", "ATP z-score, duplicate mean": 0.0913, "ATP luminescence, replicate 1 (RLU)": 6.17e5, "ATP luminescence, replicate 2 (RLU)": 5.57e5}
{"target gene": "Alg14", "amplicon": "DRSC19983", "ATP z-score, duplicate mean": 0.377, "ATP luminescence, replicate 1 (RLU)": 7.17e5, "ATP luminescence, replicate 2 (RLU)": 7.45e5}
{"target gene": "CG33124", "amplicon": "DRSC00298", "ATP z-score, duplicate mean": 0.727, "ATP luminescence, replicate 1 (RLU)": 7.88e5, "ATP luminescence, replicate 2 (RLU)": 7.73e5}
{"target gene": "dome", "amplicon": "DRSC19583", "ATP z-score, duplicate mean": 1.39, "ATP luminescence, replicate 1 (RLU)": 8.74e5, "ATP luminescence, replicate 2 (RLU)": 8.24e5}
{"target gene": "dome", "amplicon": "DRSC36979", "ATP z-score, duplicate mean": "1.62 (active)", "ATP luminescence, replicate 1 (RLU)": 6.79e5, "ATP luminescence, replicate 2 (RLU)": 7.56e5}
{"target gene": "dome", "amplicon": "DRSC36980", "ATP z-score, duplicate mean": "2.01 (active)", "ATP luminescence, replicate 1 (RLU)": 8.00e5, "ATP luminescence, replicate 2 (RLU)": 6.99e5}
{"target gene": "polyph", "amplicon": "DRSC06254", "ATP z-score, duplicate mean": 1.15, "ATP luminescence, replicate 1 (RLU)": 6.86e5, "ATP luminescence, replicate 2 (RLU)": 7.61e5}
{"target gene": "Hsepi", "amplicon": "DRSC04986", "ATP z-score, duplicate mean": -1.44, "ATP luminescence, replicate 1 (RLU)": 5.00e5, "ATP luminescence, replicate 2 (RLU)": 4.79e5}
{"target gene": "Hsepi", "amplicon": "DRSC26089", "ATP z-score, duplicate mean": 0.0455, "ATP luminescence, replicate 1 (RLU)": 7.98e5, "ATP luminescence, replicate 2 (RLU)": 9.14e5}
{"target gene": "mol", "amplicon": "DRSC01431", "ATP z-score, duplicate mean": 0.161, "ATP luminescence, replicate 1 (RLU)": 6.86e5, "ATP luminescence, replicate 2 (RLU)": 8.39e5}
{"target gene": "mol", "amplicon": "DRSC23967", "ATP z-score, duplicate mean": -0.673, "ATP luminescence, replicate 1 (RLU)": 7.00e5, "ATP luminescence, replicate 2 (RLU)": 8.34e5}
{"target gene": "brv2", "amplicon": "DRSC10226", "ATP z-score, duplicate mean": 1.38, "ATP luminescence, replicate 1 (RLU)": 1.10e6, "ATP luminescence, replicate 2 (RLU)": 1.05e6}
{"target gene": "brv2", "amplicon": "DRSC29796", "ATP z-score, duplicate mean": -1.17, "ATP luminescence, replicate 1 (RLU)": 4.72e5, "ATP luminescence, replicate 2 (RLU)": 4.89e5}
{"target gene": "sll", "amplicon": "DRSC16271", "ATP z-score, duplicate mean": "1.62 (active)", "ATP luminescence, replicate 1 (RLU)": 9.25e5, "ATP luminescence, replicate 2 (RLU)": 8.23e5}
{"target gene": "sll", "amplicon": "DRSC29864", "ATP z-score, duplicate mean": -0.213, "ATP luminescence, replicate 1 (RLU)": 5.30e5, "ATP luminescence, replicate 2 (RLU)": 5.93e5}
{"target gene": "Apl", "amplicon": "DRSC10350", "ATP z-score, duplicate mean": -1.03, "ATP luminescence, replicate 1 (RLU)": 8.10e5, "ATP luminescence, replicate 2 (RLU)": 7.13e5}
{"target gene": "CG7514", "amplicon": "DRSC08597", "ATP z-score, duplicate mean": 0.155, "ATP luminescence, replicate 1 (RLU)": 9.03e5, "ATP luminescence, replicate 2 (RLU)": 9.28e5}
{"target gene": "CG7514", "amplicon": "DRSC25670", "ATP z-score, duplicate mean": "2.69 (active)", "ATP luminescence, replicate 1 (RLU)": 8.03e5, "ATP luminescence, replicate 2 (RLU)": 1.57e6}
{"target gene": "Irk2", "amplicon": "DRSC15569", "ATP z-score, duplicate mean": 0.368, "ATP luminescence, replicate 1 (RLU)": 7.68e5, "ATP luminescence, replicate 2 (RLU)": 7.20e5}
{"target gene": "Irk2", "amplicon": "DRSC39572", "ATP z-score, duplicate mean": 0.503, "ATP luminescence, replicate 1 (RLU)": 4.87e5, "ATP luminescence, replicate 2 (RLU)": 5.13e5}
{"target gene": "CG31321", "amplicon": "DRSC13028", "ATP z-score, duplicate mean": 0.0923, "ATP luminescence, replicate 1 (RLU)": 7.11e5, "ATP luminescence, replicate 2 (RLU)": 7.97e5}
{"target gene": "CG31321", "amplicon": "DRSC27335", "ATP z-score, duplicate mean": "3.77 (active)", "ATP luminescence, replicate 1 (RLU)": 8.38e5, "ATP luminescence, replicate 2 (RLU)": 9.49e5}

2 entries already listed, sorted by “ATP luminescence, replicate 1 (RLU)”, low to high.
{"target gene": "mol", "amplicon": "DRSC01431", "ATP z-score, duplicate mean": 0.161, "ATP luminescence, replicate 1 (RLU)": 6.86e5, "ATP luminescence, replicate 2 (RLU)": 8.39e5}
{"target gene": "Hsepi", "amplicon": "DRSC26089", "ATP z-score, duplicate mean": 0.0455, "ATP luminescence, replicate 1 (RLU)": 7.98e5, "ATP luminescence, replicate 2 (RLU)": 9.14e5}
